The results in this text go back to PMC9646525, “Cryo-EM structure of the SEA complex” (Nature, 2022).

Amino acid sequences for entries named in this document (tags omitted). A change or cut given only in a name is not applied to a line headed by its entry.
UniProt P47170, whole entry, looked up, stated change not applied: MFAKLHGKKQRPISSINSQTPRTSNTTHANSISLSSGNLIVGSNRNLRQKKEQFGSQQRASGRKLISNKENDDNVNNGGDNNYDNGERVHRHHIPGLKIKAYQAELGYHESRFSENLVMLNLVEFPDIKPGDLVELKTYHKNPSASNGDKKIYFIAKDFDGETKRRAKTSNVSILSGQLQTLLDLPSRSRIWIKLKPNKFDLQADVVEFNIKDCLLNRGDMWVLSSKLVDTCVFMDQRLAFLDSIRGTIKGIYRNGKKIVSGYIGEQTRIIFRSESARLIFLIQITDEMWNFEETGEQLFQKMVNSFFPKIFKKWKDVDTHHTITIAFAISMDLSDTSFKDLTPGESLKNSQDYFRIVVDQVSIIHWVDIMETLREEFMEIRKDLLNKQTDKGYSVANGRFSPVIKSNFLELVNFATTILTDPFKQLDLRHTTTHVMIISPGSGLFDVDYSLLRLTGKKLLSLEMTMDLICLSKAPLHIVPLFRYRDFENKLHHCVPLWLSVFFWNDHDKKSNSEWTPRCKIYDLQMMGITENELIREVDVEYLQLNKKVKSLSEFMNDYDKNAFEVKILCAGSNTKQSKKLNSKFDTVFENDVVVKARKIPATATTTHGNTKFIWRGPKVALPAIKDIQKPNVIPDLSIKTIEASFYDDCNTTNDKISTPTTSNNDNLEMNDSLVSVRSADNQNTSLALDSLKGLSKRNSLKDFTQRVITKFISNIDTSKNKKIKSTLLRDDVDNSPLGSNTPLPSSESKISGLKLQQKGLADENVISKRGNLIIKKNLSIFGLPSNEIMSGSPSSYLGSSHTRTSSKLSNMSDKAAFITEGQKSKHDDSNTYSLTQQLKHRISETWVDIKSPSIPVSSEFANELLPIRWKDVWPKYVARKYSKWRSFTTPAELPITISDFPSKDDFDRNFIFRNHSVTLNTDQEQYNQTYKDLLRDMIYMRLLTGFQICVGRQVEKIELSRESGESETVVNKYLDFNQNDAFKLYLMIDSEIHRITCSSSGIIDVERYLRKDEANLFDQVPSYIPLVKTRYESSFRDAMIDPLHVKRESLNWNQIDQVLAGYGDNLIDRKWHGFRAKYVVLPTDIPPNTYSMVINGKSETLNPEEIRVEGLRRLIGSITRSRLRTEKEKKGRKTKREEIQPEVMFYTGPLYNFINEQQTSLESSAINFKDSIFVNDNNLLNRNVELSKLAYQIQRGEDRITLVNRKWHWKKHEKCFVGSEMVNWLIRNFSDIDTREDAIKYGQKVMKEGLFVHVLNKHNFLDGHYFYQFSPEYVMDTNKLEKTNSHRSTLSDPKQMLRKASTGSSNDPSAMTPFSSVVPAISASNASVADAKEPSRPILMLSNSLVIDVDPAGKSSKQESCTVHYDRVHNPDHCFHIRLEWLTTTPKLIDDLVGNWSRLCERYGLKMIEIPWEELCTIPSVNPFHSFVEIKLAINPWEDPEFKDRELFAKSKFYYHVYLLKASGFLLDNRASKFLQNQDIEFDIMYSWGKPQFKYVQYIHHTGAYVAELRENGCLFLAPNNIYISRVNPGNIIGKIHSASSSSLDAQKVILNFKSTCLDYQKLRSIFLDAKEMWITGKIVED

Where two headings read alike, the source gives them in different places. Results are given in words; binding and its absence hold for the method and conditions named. Binding seen in cells or lysates may run through a third protein. Some entries that bind do so weakly or less than the wild type.

Assay [1] addresses T1, Sea4-TAP (S. cerevisiae (endogenous in yeast cells)) (UniProt P38164).
T1 sequence: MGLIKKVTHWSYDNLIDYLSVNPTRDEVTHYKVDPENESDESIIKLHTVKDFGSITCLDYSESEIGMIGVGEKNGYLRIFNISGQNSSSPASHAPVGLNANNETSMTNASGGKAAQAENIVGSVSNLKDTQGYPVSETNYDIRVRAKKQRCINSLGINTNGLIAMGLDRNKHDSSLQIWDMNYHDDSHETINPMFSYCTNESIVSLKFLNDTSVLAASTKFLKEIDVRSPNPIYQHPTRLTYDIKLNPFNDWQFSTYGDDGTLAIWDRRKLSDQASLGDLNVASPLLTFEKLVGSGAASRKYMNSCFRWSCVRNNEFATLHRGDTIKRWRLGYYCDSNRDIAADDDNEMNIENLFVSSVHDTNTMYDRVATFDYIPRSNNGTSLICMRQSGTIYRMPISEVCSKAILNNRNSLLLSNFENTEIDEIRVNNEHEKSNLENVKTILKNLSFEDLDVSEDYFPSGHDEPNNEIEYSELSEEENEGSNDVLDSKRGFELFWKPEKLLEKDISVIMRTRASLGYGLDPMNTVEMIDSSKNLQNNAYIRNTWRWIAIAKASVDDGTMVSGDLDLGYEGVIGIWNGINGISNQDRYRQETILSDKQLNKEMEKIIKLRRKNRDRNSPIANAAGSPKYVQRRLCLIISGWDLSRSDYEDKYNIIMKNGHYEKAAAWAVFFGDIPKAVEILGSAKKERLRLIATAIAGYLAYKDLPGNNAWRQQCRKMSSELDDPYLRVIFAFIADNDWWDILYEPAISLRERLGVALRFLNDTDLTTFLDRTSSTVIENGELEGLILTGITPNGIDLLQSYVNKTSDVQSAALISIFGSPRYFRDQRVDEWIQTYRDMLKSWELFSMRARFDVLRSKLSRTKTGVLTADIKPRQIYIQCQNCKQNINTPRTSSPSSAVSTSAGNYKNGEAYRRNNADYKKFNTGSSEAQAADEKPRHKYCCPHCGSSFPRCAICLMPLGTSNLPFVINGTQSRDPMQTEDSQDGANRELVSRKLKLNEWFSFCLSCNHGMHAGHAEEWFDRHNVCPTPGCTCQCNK
As to the kind of experiment: co-IP; Sea4-TAP captured from cleared yeast lysate on IgG-coupled Dynabeads, washed, eluted with TEV protease, Coomassie-stained SDS-PAGE; 4 °C, 20 mM HEPES-NaOH pH 7.4, 300 mM NaCl, 5 mM CHAPS, 10% glycerol; wild-type, ΔNpr3, Npr2^R84A and Sea1^R943A strains.

The target in assay [2] is T1, Sea4-TAP (S. cerevisiae (endogenous in yeast cells)). The description is as above. This is another data set of the same source.

Turning to Sea1^R943A (from UniProt P47170 1-1584), the binding entry in assay [1] is “no binding”.

B1: Sec13 (natural protein, UniProt Q04491 1-297, looked up)
chain: MVVIANAHNELIHDAVLDYYGKRLATCSSDKTIKIFEVEGETHKLIDTLTGHEGPVWRVDWAHPKFGTILASCSYDGKVLIWKEENGRWSQIAVHAVHSASVNSVQWAPHEYGPLLLVASSDGKVSVVEFKENGTTSPIIIDAHAIGVNSASWAPATIEEDGEHNGTKESRKFVTGGADNLVKIWKYNSDAQTYVLESTLEGHSDWVRDVAWSPTVLLRSYLASVSQDRTCIIWTQDNEQGPWKKTLLKEEKFPDVLWRASWSLSGNVLALSGGDNKVTLWKENLEGKWEPAGEVHQ
notes: Sec13, S. cerevisiae, endogenous subunit of the SEAC (SEACAT, core); Native protein of the purified complex; two copies in the SEAC; source: endogenous, yeast cells expressing Sea4-TAP; in lysate and co-purified with Sea4-TAP (IgG Dynabeads, TEV elution)
Consider B1, for which the binding entry in assay [2] is given as “binds”.
